Counter-ions that a name gives are not always drawn. Some of the results follow. Repeats in this data set agree poorly, so a single value says little.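 A first-round screen of about ten thousand compounds sought those raising reporter output, using human embryonic kidney cells briefly transfected with a plasmid carrying a Renilla luciferase gene driven by the HSV-TK promoter.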
What follows are compounds tested on HEK 293FT (assay: log relative Renilla luciferase luminescence (reporter expression vs reference, reference not stated) (log (base not stated)); higher = higher recombinant reporter expression). Conditions: 10 µM; time after transfection 48 h.

Question: How did the log turn out when Cc1cc(O)c2c(O)c3c(O)cccc3cc2c1 [chrysarobin] was run?
Answer: 0.102

Question: C=CCSCC1Nc2cc(Cl)c(S(N)(=O)=O)cc2S(=O)(=O)N1 (configuration not stated) [althiazide] was tested. Which log did it give?
Answer: -0.144

Question: Which log does the source give for Cc1cc(-c2ccc(/N=N/c3ccc4c(S(=O)(=O)O)cc(S(=O)(=O)O)c(N)c4c3O)c(C)c2)ccc1/N=N/c1ccc2c(S(=O)(=O)O)cc(S(=O)(=O)O)c(N)c2c1O [evans blue] here?
Answer: -0.133

Question: With c1ccc(CN(CC2=NCCN2)c2ccccc2)cc1 [antazoline phosphate] as the compound, how does the log read?
Answer: -0.549

Question: Which log does the source give for COc1cc(/C=C/C(=O)N2CCCCCCC2)cc(OC)c1OC [cinoctramide] here?
Answer: 0.0237

Question: With NC(=O)NS(=O)(=O)c1ccc(N)cc1 [sulfacarbamide] as the compound, how does the log read?
Answer: 0.121

Question: Which log does the source give for CC(=O)N(CC(O)CN(C(C)=O)c1c(I)c(C(=O)NCC(O)CO)c(I)c(C(=O)NCC(O)CO)c1I)c1c(I)c(C(=O)NCC(O)CO)c(I)c(C(=O)NCC(O)CO)c1I (configuration not stated) [iodixanol] here?
Answer: 0.0992

Question: For COc1cc(O)ccc1C(C)=O [isopeonol], which log is on record?
Answer: -0.0271

Question: With CC(=O)OCC(=O)[C@H]1CC[C@H]2[C@@H]3CCC4=CC(=O)CC[C@]4(C)[C@H]3CC[C@]12C [desoxycorticosterone acetate] as the compound, how does the log read?
Answer: 0.0927

Question: For N=C(N)NCCN1CCCCCCC1 [guanethidine monosulfate], which log is on record?
Answer: 0.104

Question: For CC(C)CCCC(C)NC(C)C (configuration not stated) [iproheptine], which log is on record?
Answer: 0.0431

Question: How did the log turn out when C#C[C@]1(O)CC[C@H]2[C@@H]3CCC4=CC(=O)CC[C@@H]4[C@H]3CC[C@@]21CC [levonorgestrel] was run?
Answer: -0.05

Question: Which log does the source give for CC(CN(C)C)CN1c2ccccc2Sc2ccccc21 (configuration not stated) [trimeprazine tartrate] here?
Answer: 0.00182

Question: CC1(C)[C@@H](OC(=O)CCC(=O)O)CC[C@]2(C)[C@H]3C(=O)C=C4[C@@H]5C[C@@](C)(C(=O)O)CC[C@]5(C)CC[C@@]4(C)[C@]3(C)CC[C@@H]12 [carbenoxolone sodium] was tested. Which log did it give?
Answer: -0.123

Question: C=CCOC(Cn1ccnc1)c1ccc(Cl)cc1Cl (configuration not stated) [enilconazole] was tested. Which log did it give?
Answer: 0.177

Question: Which log does the source give for O=C(/C=C/c1ccc(O)c(O)c1)O[C@@H]1C[C@](O)(C(=O)O)C[C@@H](O)[C@H]1O [chlorogenic acid] here?
Answer: 0.103

Question: Which log does the source give for CC[C@@H](CO)NCCN[C@@H](CC)CO [ethambutol hydrochloride] here?
Answer: 0.137

Question: C[C@]1(Cn2ccnn2)[C@H](C(=O)O)N2C(=O)C[C@H]2S1(=O)=O [tazobactam] was tested. Which log did it give?
Answer: -0.171

Question: For CC(=O)OCC(=O)[C@@]1(OC(C)=O)[C@@H](C)C[C@H]2[C@@H]3C[C@H](F)C4=CC(=O)C=C[C@]4(C)[C@@]3(F)[C@@H](O)C[C@@]21C [diflorasone diacetate], which log is on record?
Answer: -0.024

Question: How did the log turn out when Nc1ccccc1C(=O)CC(N)C(=O)O (configuration not stated) [kynurenine] was run?
Answer: 0.0883

Question: How did the log turn out when CCN(CC)CCOCCOC(=O)C(CC)(CC)c1ccccc1 [oxelaidin citrate] was run?
Answer: 0.0613

Question: How did the log turn out when CCCOc1ccc(C(=O)OCCN(CC)CC)cc1N [proparacaine hydrochloride] was run?
Answer: -0.0606

Question: With CCCCC1(COC(=O)CCC(=O)O)C(=O)N(c2ccccc2)N(c2ccccc2)C1=O [suxibuzone] as the compound, how does the log read?
Answer: -0.00598

Question: COc1cc(NC(C)CCCN)c2ncccc2c1 (configuration not stated) [primaquine phosphate] was tested. Which log did it give?
Answer: 0.0682

Question: For CC1=C(/C=C/C(C)=C/C=C/C(C)=C\C(=O)O)C(C)(C)CCC1 [isotretinon], which log is on record?
Answer: -0.433

Question: Which log does the source give for CC/C(=C(/CC)c1ccc(O)cc1)c1ccc(O)cc1 [diethylstilbestrol] here?
Answer: -0.114

Question: For Cl.N=C(N)NCCC[C@H](N)C(=O)O [arginine hydrochloride], which log is on record?
Answer: 0.054

Question: Which log does the source give for COc1cc(O)c2c(=O)c(O)c(-c3ccccc3)oc2c1 [izalpinin] here?
Answer: -0.0908

Question: For CSc1ccc2c(c1)N(CCC1CCCCN1C)c1ccccc1S2 (configuration not stated) [thioridazine hydrochloride], which log is on record?
Answer: 0.0583

Question: For NC(N)=Nc1nc(CSCC/C(N)=N/S(N)(=O)=O)cs1 [famotidine], which log is on record?
Answer: 0.112

Question: Cc1cc(-c2ccccc2)nnc1NCCN1CCOCC1 [minaprine hydrochloride] was tested. Which log did it give?
Answer: -0.0225

Question: Which log does the source give for COc1ccc(-c2cc(=O)c3c(OC(C)=O)cc(OC(C)=O)cc3o2)cc1 [acacetin diacetate] here?
Answer: 0.168

Question: Which log does the source give for COC1(C)CCC2OC2(C)CCC2C1CC2(C)C (configuration not stated) [2-methoxy-5 (6)epoxy-tetrahydrocaryophyllene] here?
Answer: 0.345

Question: For CN(C)[C@@H]1C(O)=C(C(N)=O)C(=O)[C@@]2(O)C(O)=C3C(=O)c4c(O)cccc4[C@@](C)(O)[C@H]3[C@H](O)[C@@H]12 [oxytetracycline], which log is on record?
Answer: -0.216

Question: For CC(=O)NCCc1ccc(O)c(-c2c(O)c(O)c3c(c2O)C(=O)c2c(cc(O)c(C(=O)O)c2C(=O)O)C3=O)c1 [laccaic acid a], which log is on record?
Answer: -0.0552

Question: With Cc1ccsc1/C=C/C1=NCCCN1C [morantel citrate] as the compound, how does the log read?
Answer: 0.135

Question: CCCCCCCCCCCCCCCCOP(=O)([O-])OCC[N+](C)(C)C [miltefosine] was tested. Which log did it give?
Answer: 0.126

Question: Which log does the source give for CN(C)c1ccc(O)c2c1C[C@H]1C[C@H]3[C@H](N(C)C)C(O)=C(C(N)=O)C(=O)[C@@]3(O)C(O)=C1C2=O [minocycline hydrochloride] here?
Answer: -0.00497

Question: Which log does the source give for COc1cc(OC)c2c(=O)c(-c3ccc4c(c3)OCO4)coc2c1 [derrustone] here?
Answer: 0.104

Question: Nc1nc(NC2CC2)c2ncn([C@H]3C=C[C@@H](CO)C3)c2n1 [abacavir sulfate] was tested. Which log did it give?
Answer: -0.0112

Question: With CCOc1ccc2nc3cc(N)ccc3c(N)c2c1 [ethacridine lactate] as the compound, how does the log read?
Answer: -0.42

Question: With CCN(CC)CCNc1ccc(CO)c2sc3ccccc3c(=O)c12 [hycanthone] as the compound, how does the log read?
Answer: 0.0786

Question: O=c1c(O)cc([C@H]2Oc3cc(O)cc(O)c3C[C@H]2O)cc2c([C@H]3Oc4cc(O)cc(O)c4C[C@H]3O)cc(O)c(O)c12 [theaflavin] was tested. Which log did it give?
Answer: 0.163

Question: How did the log turn out when O=C(COc1ccc(Cl)cc1)N1CCN(Cc2ccc3c(c2)OCO3)CC1 [fipexide hydrochloride] was run?
Answer: -0.0538

Question: Which log does the source give for N[C@@H](Cc1ccc(O)cc1)C(=O)O [tyrosine] here?
Answer: -0.271

Question: How did the log turn out when CC(C)(C)CC(C)(C)c1ccc(O)c(Cc2ccc(Cl)cc2Cl)c1 [clofoctol] was run?
Answer: 0.102

Question: How did the log turn out when C[C@H]1[C@H](C)CC[C@]2(C(=O)O)CC[C@]3(C)C(=CC[C@@H]4[C@@]5(C)C[C@@H](O)[C@H](O)[C@@](C)(CO)[C@@H]5CC[C@]43C)[C@H]12 [asiatic acid] was run?
Answer: 0.0707

Question: How did the log turn out when CCN(CC)CCOC(=O)C(c1ccccc1)c1ccccc1 [adiphenine hydrochloride] was run?
Answer: 0.00408

Question: How did the log turn out when CC(C)CCCC(C)C1CCC2C3=CCC4CC(O)CCC4(C)C3CCC21C (configuration not stated) [lathosterol] was run?
Answer: -0.176

Question: With C[C@]12CC[C@@H]3c4ccc(OS(=O)(=O)O)cc4CC[C@H]3[C@@H]1CCC2=O [estropipate] as the compound, how does the log read?
Answer: -0.0162

Question: For COc1cccc(OC)c1C(=O)N[C@@H]1C(=O)N2[C@@H]1SC(C)(C)[C@@H]2C(=O)O [methicillin sodium], which log is on record?
Answer: 0.234

Question: For Cc1ccc(S(=O)(=O)NC(=O)NN2CCCCCC2)cc1 [tolazamide], which log is on record?
Answer: 0.0161

Question: For O=C(O)[C@H]1O[C@@H](Oc2cc3oc(-c4ccccc4)cc(=O)c3c(O)c2O)[C@H](O)[C@@H](O)[C@@H]1O [baicalin], which log is on record?
Answer: 0.102

Question: How did the log turn out when Nc1ccc(S(=O)(=O)Nc2ccccn2)cc1 [sulfapyridine] was run?
Answer: 0.124

Question: For CO[C@H]1C[C@H](O[C@H]2[C@H](C)[C@@H](O[C@@H]3O[C@H](C)C[C@H](N(C)C)[C@H]3O)[C@@H](C)C[C@@]3(CO3)C(=O)[C@H](C)[C@@H](O)[C@@H](C)[C@@H](C)OC(=O)[C@@H]2C)O[C@@H](C)[C@@H]1O [oleandomycin phosphate], which log is on record?
Answer: -0.704

Question: O=c1[nH]c(=O)c2ccccc2o1 [carsalam] was tested. Which log did it give?
Answer: -0.106

Question: For Nc1ccn([C@@H]2O[C@H](CO)[C@@H](O)[C@@H]2O)c(=O)n1 [cytarabine], which log is on record?
Answer: -0.378

Question: COc1ccnc(C[S+]([O-])c2nc3cc(OC(F)F)ccc3[nH]2)c1OC (configuration not stated) [pantoprazole] was tested. Which log did it give?
Answer: 0.0384

Question: O=C(O)[C@H](O)[C@@](O)(Cc1ccc(O)cc1)C(=O)O [piscidic acid] was tested. Which log did it give?
Answer: 0.172

Question: How did the log turn out when CC(=O)N[C@@H](C=O)[C@@H](O)[C@H](O)[C@H](O)CO [acetylglucosamine] was run?
Answer: 0.0426

Question: With O=c1[nH]cnc2c1ncn2[C@@H]1O[C@H](CO)[C@@H](O)[C@H]1O [inosine] as the compound, how does the log read?
Answer: 0.0977

Question: CCCCOc1cc(CC2CNC(=O)N2)ccc1OC (configuration not stated) [4-(3-butoxy-4-methoxybenzyl)imidazolidin-2-one] was tested. Which log did it give?
Answer: 0.000294

Question: CC(C)Cn1c(=O)n(C)c(=O)c2[nH]cnc21 [3-isobutyl-1-methylxanthine (ibmx)] was tested. Which log did it give?
Answer: 0.129

Question: With COc1cc([C@@H]2c3cc4c(cc3[C@@H](O[C@@H]3O[C@@H]5CO[C@@H](c6cccs6)O[C@H]5[C@H](O)[C@H]3O)[C@H]3COC(=O)[C@H]23)OCO4)cc(OC)c1O [teniposide] as the compound, how does the log read?
Answer: -1.16

Question: With O=c1ccc2ccccc2o1 [coumarin] as the compound, how does the log read?
Answer: -0.0673

Question: With NCCOB(c1ccccc1)c1ccccc1 [aminoethoxydiphenylborane] as the compound, how does the log read?
Answer: 0.118

Question: For CC1(C)C=Cc2cc3ccc(=O)oc3cc2O1 [xanthyletin], which log is on record?
Answer: 0.0394

Question: For CN(C)CCCN1c2ccccc2Sc2ccc(Cl)cc21 [chlorpromazine], which log is on record?
Answer: -0.107

Question: How did the log turn out when CCOC(=O)c1c(C)cc(O)cc1O [orsellinic acid, ethyl ester] was run?
Answer: -0.151

Question: Which log does the source give for COc1cc(O)c2c(=O)cc(-c3ccc(O)cc3)oc2c1 [genkwanin] here?
Answer: 0.116

Question: Which log does the source give for O=c1ccn([C@@H]2O[C@H](COP(=O)(O)OP(=O)(O)OP(=O)(O)O)[C@@H](O)[C@H]2O)c(=O)[nH]1 [uridine triphosphate trisodium] here?
Answer: -0.0595

Question: How did the log turn out when Cc1nc(-c2ccc(OCC(C)C)c(C#N)c2)sc1C(=O)O [febuxostat] was run?
Answer: 0.117

Reference: the supplement of paper PMC7024190
